Test results: PubChem BioAssay AID504467 (National Center for Advancing Translational Sciences (NCATS), 2011)
About 7,700 (2.3%) of roughly 330,000 compounds were called active. This list was built around the results that the source calls inconclusive (neither active nor inactive); the mix of calls is not that of the screen. The call rests on the fitted dose curve; in most records, active means well fitted inhibition curve with a large enough effect; inconclusive means small, poorly fitted or top-dose-only effect, or effect the other way; inactive means flat fitted curve, though single readings scatter. Potencies of inconclusive entries are doubtful fits and often do not repeat.

Assay: qHTS screen for small molecules that inhibit ELG1-dependent DNA repair in human embryonic kidney (HEK293T) cells expressing luciferase-tagged ELG1; further: nearly all actives have a fitted effect of over 55% in size
Details: HEK293T ELG1-luciferase reporter, luminescence, 16 h, DNA damage induced by 5-fluorouridine; series mostly up to 46.1 µM
In short: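 DMSO vehicle served as the neutral condition. Each well held 2,000 cells given 5-fluorouridine plus compound; after 16 hr at 37 °C/5% CO2, ONE-Glo was added and luciferase measured 30 min later.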
Potency means the concentration at half of the fitted maximal effect.

Structure (SMILES) | Potency
O=C(c1cccc(N2CCNC2=O)c1)N1CCCC(Nc2cccc(F)c2)C1 (stereo not drawn) | inactive
CCNC(=O)CC1C(=O)N(c2ccc(F)cc2)C(=O)N1CCc1ccc(OC)cc1 (stereo not drawn) | inactive
c1ccc(NCc2cccnc2)cc1 | inactive
COc1cc(/C=C/C(=O)Nc2ccc(OC)c(S(=O)(=O)N3CCOCC3)c2)ccc1OCC#N | inconclusive: 23.1 µM [inhibitor, single point]
O=C(CSCc1ccc(Br)cc1)N1CCOCC1 | inconclusive: 23.1 µM [activator, single point]
COc1cccc(/C(C#N)=C/c2c(-c3ccc(Cl)cc3)nc3c(C)cccn23)c1 | active: 14.6 µM
O=C(Cn1c(=O)c(=O)n(Cc2ccccc2)c2ccc(Cl)cc21)Nc1ccc(F)cc1F | inactive
NC1=NC(c2ccc(Cl)cc2)C(C(=O)c2ccccc2)N1 (stereo not drawn) | inconclusive: 23.1 µM [inhibitor, partial curve]
O=C(NC1CCCC1)c1cc(-c2cccs2)on1 | inconclusive: 10.3 µM [activator, partial curve]
Cc1cccc(NC(=O)Cn2c(=O)oc3ccccc32)c1 | inconclusive: 0.231 µM [activator, single point]
O=C(COC(=O)c1ccco1)c1ccccc1 | inconclusive: 10.3 µM [activator, partial curve, poor fit]
CC(OC(=O)C1CCCCC1)C(=O)Nc1cccc(Cl)c1 (stereo not drawn) | inconclusive: 16.4 µM [inhibitor, partial curve]
Cc1ccc(S(=O)(=O)N2CCN(C)CC2c2ccccc2)cc1 (stereo not drawn) | inactive
O=C(NC(=S)N1CCCc2ccccc21)c1ccc(Br)cc1 | inconclusive: 25.9 µM [activator, partial curve, poor fit]
Cc1ccc(-c2nc(C(Cl)Cl)c3ccccc3n2)cc1 | active: 23.1 µM
Cc1ccc(NC(=O)CCn2cccc2)cc1 | inconclusive: 16.4 µM [activator, single point]
CCN1CCc2nc(NC(=O)c3cc(F)c(F)cc3Cl)sc2C1 | inconclusive: 13 µM [activator, partial curve, poor fit]
Cc1ccccc1Nc1nc(N)nc(CSc2nnc3ccccn23)n1 | inconclusive: 20.6 µM [activator, partial curve]
COCCOC(=O)c1c(NC(=O)CN(C)c2ccccc2)sc(C(N)=O)c1C | inconclusive: 16.4 µM [inhibitor, partial curve, poor fit]
O=C(NCC1CCCO1)c1cccc(S(=O)(=O)Nc2cccc(C(F)(F)F)c2)c1 (stereo not drawn) | inconclusive: 18.3 µM [inhibitor, partial curve, poor fit]
CC(C)(C)N1OC2CC1c1nc3ccccc3n1C2 (stereo not drawn) | inconclusive: 32.6 µM [activator, partial curve, poor fit]
Cc1cccc(NC(=O)[C@@H](CC(C)C)NC(=O)[C@@H]2Cc3ccccc3CN2)c1 | inconclusive: 18.3 µM [activator, single point]

By substructure: those above containing an aryl methoxy group (three)
Structure (SMILES) | Potency
CCNC(=O)CC1C(=O)N(c2ccc(F)cc2)C(=O)N1CCc1ccc(OC)cc1 (stereo not drawn) | inactive
COc1cc(/C=C/C(=O)Nc2ccc(OC)c(S(=O)(=O)N3CCOCC3)c2)ccc1OCC#N | inconclusive: 23.1 µM [inhibitor, single point]
COc1cccc(/C(C#N)=C/c2c(-c3ccc(Cl)cc3)nc3c(C)cccn23)c1 | active: 14.6 µM

(further entries)

Structure (SMILES) | Potency
CCOC(=O)N1CCC(NC(=O)c2cc(S(=O)(=O)N3CCc4ccccc43)cn2C)CC1 | inconclusive: 29.1 µM [inhibitor, single point]
CC(C)(C)NC(=O)COc1ccc(CNCCc2ccccc2)cc1 | inactive
N/C(=N\OC(=O)c1cc(Cl)ccc1Cl)c1ccncc1 | inconclusive: 23.1 µM [activator, partial curve]
Cc1ccc(NC2CCCN(C(=O)C3CCCCC3)C2)cc1C (stereo not drawn) | inconclusive: 14.6 µM [inhibitor, partial curve]
COc1ccc(/C=N/NC(=O)c2ccc(COc3ccccc3Cl)o2)cc1 | inconclusive: 20.6 µM [activator, partial curve, poor fit]
CCOc1ccc(C(=O)N/N=C(/C)C2C(=O)c3ccccc3C2=O)cc1 | inconclusive: 25.9 µM [inhibitor, single point]
COc1ccccc1-n1ccn(CC(=O)Nc2ccc(C)cc2Cl)c(=O)c1=O | inconclusive: 0.651 µM [activator, full curve, poor fit]
Cc1cc(C)nc(NS(=O)(=O)c2ccc(NC(=O)c3ccccc3[N+](=O)[O-])cc2)n1 | inactive
CCc1ccc(C(=O)COC(=O)c2cncc(Br)c2)cc1 | inconclusive: 20.6 µM [inhibitor, partial curve, poor fit]
O=C(NCCCc1ccccc1)C(=O)c1c[nH]c2ccccc12 | inconclusive: 11.6 µM [activator, partial curve, poor fit]
O=C(NNS(=O)(=O)c1ccc(F)cc1)c1ccccc1O | inconclusive: 14.6 µM [inhibitor, partial curve, poor fit]
COc1ccc(OCC(=O)Nc2ccc(N3CCN(Cc4ccccc4F)CC3)cc2)cc1 | inconclusive: 2.91 µM [inhibitor, full curve]
CCOc1ccc(NC(=O)CN(C)C(=O)C2CCN(c3ncnc4sc(C)c(C)c34)CC2)cc1OCC | active: 14.6 µM
Cc1ccccc1NC(=O)c1ccc(NC(=O)C2CCCO2)cc1 (stereo not drawn) | inconclusive: 29.1 µM [activator, single point]
CC(=O)N(C)C1=C(N2CCOCC2)C(=O)c2ccccc2C1=O | inconclusive: 5.17 µM [inhibitor, single point]
CCCCNC(=O)COC(=O)c1c2c(nc3ccccc13)/C(=C/c1cccs1)CC2 | inconclusive: 20.6 µM [inhibitor, single point]
O=C(CN(Cc1ccc2c(c1)OCO2)C(=O)CNC(=O)c1ccco1)NC1CCCCC1 | inconclusive: 6.51 µM [inhibitor, single point]
O=C(O)c1cccc(Cn2c(Cl)c(/C=N/NC(=O)c3ccccc3Cl)sc2=O)c1 | inactive
O=C(CCCCCN1C(=O)CCC1=O)Nc1ccc2c(c1)OCO2 | inconclusive: 20.6 µM [activator, partial curve, poor fit]
CS(=O)(=O)N(CC(=O)Nc1ccccc1-c1ccccc1)c1ccccc1 | inactive
CC1CCCCN1C(=O)CSc1nc2ccccc2[nH]1 (stereo not drawn) | inconclusive: 16.4 µM [activator, single point]
